Test results as given in publication PMC6834431.
These are yes or no findings as the source states them, for the method shown. Binding seen in cells or lysates may run through a third protein. Some results given as binding are weak or reduced against the parent protein; the word gives no strength.

Sequences of proteins named here, by UniProt entry; tags and fusion partners are left off. Residues count along the entry.
UniProt A6NMZ7, residues 20-2263: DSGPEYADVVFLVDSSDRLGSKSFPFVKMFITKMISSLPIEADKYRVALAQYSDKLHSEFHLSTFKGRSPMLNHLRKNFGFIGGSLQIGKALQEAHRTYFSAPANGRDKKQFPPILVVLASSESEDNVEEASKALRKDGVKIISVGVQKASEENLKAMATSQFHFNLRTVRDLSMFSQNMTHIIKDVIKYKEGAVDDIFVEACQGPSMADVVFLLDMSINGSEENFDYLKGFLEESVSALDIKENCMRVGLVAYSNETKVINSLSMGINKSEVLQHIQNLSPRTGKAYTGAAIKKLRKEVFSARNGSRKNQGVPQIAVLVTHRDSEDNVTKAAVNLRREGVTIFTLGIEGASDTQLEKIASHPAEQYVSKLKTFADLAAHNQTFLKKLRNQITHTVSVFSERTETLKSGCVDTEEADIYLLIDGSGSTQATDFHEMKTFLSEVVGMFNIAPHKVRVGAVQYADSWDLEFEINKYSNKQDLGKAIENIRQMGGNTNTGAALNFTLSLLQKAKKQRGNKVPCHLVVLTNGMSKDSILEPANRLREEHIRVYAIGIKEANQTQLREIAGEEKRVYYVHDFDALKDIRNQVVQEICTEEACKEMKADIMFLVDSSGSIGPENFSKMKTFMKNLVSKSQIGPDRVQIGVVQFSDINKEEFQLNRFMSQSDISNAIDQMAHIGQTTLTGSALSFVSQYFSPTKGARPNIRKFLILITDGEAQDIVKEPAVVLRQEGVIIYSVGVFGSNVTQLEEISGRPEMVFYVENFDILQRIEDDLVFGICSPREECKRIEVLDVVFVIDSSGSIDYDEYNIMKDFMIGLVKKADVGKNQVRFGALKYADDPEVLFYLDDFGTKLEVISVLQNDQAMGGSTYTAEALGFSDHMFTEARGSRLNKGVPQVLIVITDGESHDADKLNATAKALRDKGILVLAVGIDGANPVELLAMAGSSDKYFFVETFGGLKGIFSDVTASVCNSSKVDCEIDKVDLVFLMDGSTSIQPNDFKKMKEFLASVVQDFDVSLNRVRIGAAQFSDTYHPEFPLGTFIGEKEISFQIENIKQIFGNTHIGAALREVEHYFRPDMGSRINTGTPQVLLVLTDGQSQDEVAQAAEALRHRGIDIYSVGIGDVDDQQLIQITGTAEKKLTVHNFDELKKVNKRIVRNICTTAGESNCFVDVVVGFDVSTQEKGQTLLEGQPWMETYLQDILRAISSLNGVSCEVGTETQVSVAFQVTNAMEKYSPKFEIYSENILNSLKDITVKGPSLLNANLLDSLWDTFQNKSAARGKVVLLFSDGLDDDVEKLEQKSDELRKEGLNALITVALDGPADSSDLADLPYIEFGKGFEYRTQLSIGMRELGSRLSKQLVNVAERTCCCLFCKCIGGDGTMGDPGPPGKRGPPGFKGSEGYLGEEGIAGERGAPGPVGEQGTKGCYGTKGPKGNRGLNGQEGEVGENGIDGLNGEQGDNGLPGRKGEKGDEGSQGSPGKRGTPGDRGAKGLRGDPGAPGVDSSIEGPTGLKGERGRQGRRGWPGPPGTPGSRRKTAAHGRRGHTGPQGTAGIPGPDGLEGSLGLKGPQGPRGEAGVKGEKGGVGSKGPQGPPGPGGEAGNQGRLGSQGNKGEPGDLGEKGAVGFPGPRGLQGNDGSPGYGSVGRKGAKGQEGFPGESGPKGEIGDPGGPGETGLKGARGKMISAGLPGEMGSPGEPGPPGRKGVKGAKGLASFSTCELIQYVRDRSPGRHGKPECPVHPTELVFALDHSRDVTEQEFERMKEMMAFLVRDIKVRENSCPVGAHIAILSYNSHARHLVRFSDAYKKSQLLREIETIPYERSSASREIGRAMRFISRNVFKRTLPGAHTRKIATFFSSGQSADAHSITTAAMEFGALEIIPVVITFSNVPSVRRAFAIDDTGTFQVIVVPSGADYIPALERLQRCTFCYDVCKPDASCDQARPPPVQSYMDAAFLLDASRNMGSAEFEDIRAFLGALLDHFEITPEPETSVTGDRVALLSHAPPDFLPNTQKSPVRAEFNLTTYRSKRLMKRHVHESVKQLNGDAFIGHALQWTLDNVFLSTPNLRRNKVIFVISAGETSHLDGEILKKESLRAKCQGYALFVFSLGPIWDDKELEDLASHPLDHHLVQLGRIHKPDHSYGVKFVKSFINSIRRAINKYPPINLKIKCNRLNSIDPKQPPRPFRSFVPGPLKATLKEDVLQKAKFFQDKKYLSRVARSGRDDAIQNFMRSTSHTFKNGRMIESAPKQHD

Target: T1, prolyl-4-hydroxylase alpha polypeptide III (P4HA3) (UniProt Q7Z4N8)
T1 sequence: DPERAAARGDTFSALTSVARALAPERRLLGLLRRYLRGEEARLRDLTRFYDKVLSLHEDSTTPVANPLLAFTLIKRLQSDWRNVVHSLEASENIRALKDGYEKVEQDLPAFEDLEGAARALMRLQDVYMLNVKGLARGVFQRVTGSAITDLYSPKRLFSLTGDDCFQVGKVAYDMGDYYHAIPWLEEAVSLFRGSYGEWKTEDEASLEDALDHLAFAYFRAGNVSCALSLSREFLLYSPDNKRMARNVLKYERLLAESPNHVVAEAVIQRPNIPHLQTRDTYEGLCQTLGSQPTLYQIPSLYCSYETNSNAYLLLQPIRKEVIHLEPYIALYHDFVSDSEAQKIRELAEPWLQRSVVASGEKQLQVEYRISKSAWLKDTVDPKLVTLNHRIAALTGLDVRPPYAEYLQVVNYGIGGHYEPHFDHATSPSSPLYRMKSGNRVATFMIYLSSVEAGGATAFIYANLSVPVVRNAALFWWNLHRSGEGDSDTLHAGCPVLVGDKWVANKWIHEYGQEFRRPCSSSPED
Test: co-IP; co-immunoprecipitation (Figure 5C, 5D); cells, precipitating antibody and conditions not stated

binding: binds
Substance: collagen type VI alpha 6 (COL6A6) (from UniProt A6NMZ7 20-2263)
